These results are taken from US20220135694A1, “NOVEL CD40-BINDING ANTIBODIES” (LAVA THERAPEUTICS B.V., priority 2019, published 2022).

By UniProt entry, the sequences of proteins in these tests, tags left out. Residues count along the entry.
UniProt P25942, residues 21-193: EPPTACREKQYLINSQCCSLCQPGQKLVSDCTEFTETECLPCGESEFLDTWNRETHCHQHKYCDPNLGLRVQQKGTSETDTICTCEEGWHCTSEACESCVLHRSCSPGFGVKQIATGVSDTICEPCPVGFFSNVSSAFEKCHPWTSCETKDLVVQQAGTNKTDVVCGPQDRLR

First the molecules themselves.
B1: V12t (VHH)
VHH: QVQLQESGGGLVQAGGSLRLSCAASGLVFKRYSMNWYRQPPGQQRGLVASISDSGVSTNYADSVKGRFTISRDNAKNIGYLQMNSLKPEDTAVYYCNMHTFWGQGTQVTVSS
notes: Llama VHH with C-terminal Myc- and His6-tag; also called monovalent anti-CD40 VHH V12t
B2: V15t (VHH)
VHH: EVQLQESGGGLVQAGGSLRLSCVTSGSAFSSDTMGWFRQAPGKQRELVASISSRGVREYADSVKGRFTISRDNAKNTVYLQMNSLQPEDTAVYYCNRGALGLPGYRPYNNWGQGTQVTVSS
notes: Llama VHH with C-terminal Myc- and His6-tag; also called monovalent anti-CD40 VHH V15t
B3: V19t (VHH)
VHH: QVQLQESGGGLVQAGGSLRLSCAASGRTFGRSAMGWFRQAPGKEREFVAAIGTRGGSTKYADSVKGRFTISTDNASNTVYLQMDSLKPEDTAVYRCAVRGPGYPSAAIFQDEYHYWGQGTQVTVSS

These are yes or no findings as the source states them, for the method shown. Some results given as binding are weak or reduced against the parent protein; the word gives no strength.

For the assay, the target named is IgG1-Fc-tagged human CD40 (71174, BPS Bioscience) (human) (UniProt P25942). Kind of assay: ELISA screen, periplasmic extracts on plate-coated IgG1-Fc-tagged human CD40, anti-Myc detection.
Regarding B1, the binding entry is “binds”.
For the molecule B2, the binding result was “binds”.
On to B3, for which the binding entry is recorded as “binds”.
